Data from article PMC3554688, “Potassium and Ionic Strength Effects on the Conformational and Thermal Stability of Two Aldehyde Dehydrogenases Reveal Structural and Functional Roles of K^+-Binding Sites” (PLoS ONE, 2013).
These are yes or no findings as the source states them, for the method shown. Some results given as binding are weak or reduced against the parent protein; the word gives no strength.

Tests used:
[1] = target: betaine aldehyde dehydrogenase from Pseudomonas aeruginosa (Pseudomonas aeruginosa) (UniProt Q9HTJ1); experiment: SEC; Superdex 200 HR 10/30, room temperature; TEA-buffer (1 mM PIPES-TEA hydroxide pH 6.9, 1 mM EDTA, 0.5 mM DTT, 250 mM TEACl); data not shown; both purified
[2] = target: betaine aldehyde dehydrogenase from spinach (Spinacia oleracea) (Spinacia oleracea) (UniProt P17202); experiment: as above

| binding [1] | binding [2] | Binder |
| --- | --- | --- |
| binds |  | betaine aldehyde dehydrogenase from Pseudomonas aeruginosa (enzyme, betaine aldehyde dehydrogenase (BADH, ALDH9) of Pseudomonas aeruginosa; recombinant; Homotetramer; also called PaBADH; ALDH9; source: E. coli, purified to homogeneity) MARFEEQKLYIGGRYVEASSGATFETINPANGEVLAKVQRASREDVERAVQSAVEGQKVWAAMTAMQRSRILRRAVDILRERNDELAALETLDTGKPLAETRSVDIVTGADVLEYYAGLVPAIEGEQIPLRETSFVYTRREPLGVVAGIGAWNYPVQIALWKSAPALAAGNAMIFKPSEVTPLTALKLAEIYTEAGVPDGVFNVLTGSGREVGQWLTEHPLIEKISFTGGTSTGKKVMASASSSSLKEVTMELGGKSPLIIFPDADLDRAADIAVMANFFSSGQVCTNGTRVFIHRSQQARFEAKVLERVQRIRLGDPQDENTNFGPLVSFPHMESVLGYIESGKAQKARLLCGGERVTDGAFGKGAYVAPTVFTDCRDDMTIVREEIFGPVMSILVYDDEDEAIRRANDTEYGLAAGVVTQDLARAHRAIHRLEAGICWINTWGESPAEMPVGGYKQSGVGRENGLTTLAHYTRIKSVQVELGDYASVF |
|  | binds | betaine aldehyde dehydrogenase from spinach (Spinacia oleracea) (enzyme, betaine aldehyde dehydrogenase (BADH, ALDH10) of Spinacia oleracea; recombinant; Homodimer in K-buffer; associates into tetramers in the non-salt buffer; also called SoBADH; ALDH10; source: E. coli, purified to homogeneity) MAFPIPARQLFIDGEWREPIKKNRIPVINPSTEEIIGDIPAATAEDVEVAVVAARRAFRRNNWSATSGAHRATYLRAIAAKITEKKDHFVKLETIDSGKPFDEAVLDIDDVASCFEYFAGQAEALDGKQKAPVTLPMERFKSHVLRQPLGVVGLISPWNYPLLMATWKIAPALAAGCTAVLKPSELASVTCLEFGEVCNEVGLPPGVLNILTGLGPDAGAPLVSHPDVDKIAFTGSSATGSKVMASAAQLVKPVTLELGGKSPIVVFEDVDIDKVVEWTIFGCFWTNGQICSATSRLLVHESIAAEFVDKLVKWTKNIKISDPFEEGCRLGPVISKGQYDKIMKFISTAKSEGATILYGGSRPEHLKKGYYIEPTIVTDISTSMQIWKEEVFGPVLCVKTFSSEDEAIALANDTEYGLAAAVFSNDLERCERITKALEVGAVWVNCSQPCFVQAPWGGIKRSGFGRELGEWGIQNYLNIKQVTQDISDEPWGWYKS |
